Results are given in words; binding and its absence hold for the method and conditions named. In cells and extracts the contact can be indirect. Some results given as binding are weak or reduced against the parent protein; the word gives no strength.
What was measured:
HA-MITF (S49A) (human) = HA-MITF (S49A) (human) (UniProt O75030); assay: co-IP; HA-IP from MCF-7 PR cells transfected with HA-MITF (WT or S49A) and the indicated importins; cells with OGT inhibition or PUGNAc as indicated
HA-MITF (human) = HA-MITF (human) (UniProt O75030); assay: as above
[1] = biological target: GST-MITF (non-O-GlcNAcylated) (human) (UniProt O75030); assay: pull-down; GST-MITF with or without in vitro O-GlcNAcylation on glutathione Sepharose beads, incubated at 4 °C overnight with lysates (NETN buffer) of MCF-7 PR cells transfected with the indicated importin α; only the target purified
[2] = biological target: GST-MITF with O-GlcNAcylation (human) (UniProt O75030); assay: as above

Amino acid sequences for entries named in this document (tags omitted). A change or cut given only in a name is not applied to a line headed by its entry.
UniProt O75030: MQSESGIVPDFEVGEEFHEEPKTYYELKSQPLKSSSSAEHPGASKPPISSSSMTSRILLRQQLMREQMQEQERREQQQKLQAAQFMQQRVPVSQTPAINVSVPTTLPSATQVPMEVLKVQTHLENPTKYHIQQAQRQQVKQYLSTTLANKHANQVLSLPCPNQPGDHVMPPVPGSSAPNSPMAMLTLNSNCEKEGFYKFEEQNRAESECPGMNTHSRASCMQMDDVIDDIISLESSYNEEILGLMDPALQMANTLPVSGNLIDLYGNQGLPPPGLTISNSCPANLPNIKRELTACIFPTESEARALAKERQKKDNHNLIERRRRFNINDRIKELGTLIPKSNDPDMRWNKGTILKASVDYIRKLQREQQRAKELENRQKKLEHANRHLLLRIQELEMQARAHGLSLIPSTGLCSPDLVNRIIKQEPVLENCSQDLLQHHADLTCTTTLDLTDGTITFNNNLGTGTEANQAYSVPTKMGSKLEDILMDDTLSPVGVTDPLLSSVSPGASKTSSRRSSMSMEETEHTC
UniProt A9QM74: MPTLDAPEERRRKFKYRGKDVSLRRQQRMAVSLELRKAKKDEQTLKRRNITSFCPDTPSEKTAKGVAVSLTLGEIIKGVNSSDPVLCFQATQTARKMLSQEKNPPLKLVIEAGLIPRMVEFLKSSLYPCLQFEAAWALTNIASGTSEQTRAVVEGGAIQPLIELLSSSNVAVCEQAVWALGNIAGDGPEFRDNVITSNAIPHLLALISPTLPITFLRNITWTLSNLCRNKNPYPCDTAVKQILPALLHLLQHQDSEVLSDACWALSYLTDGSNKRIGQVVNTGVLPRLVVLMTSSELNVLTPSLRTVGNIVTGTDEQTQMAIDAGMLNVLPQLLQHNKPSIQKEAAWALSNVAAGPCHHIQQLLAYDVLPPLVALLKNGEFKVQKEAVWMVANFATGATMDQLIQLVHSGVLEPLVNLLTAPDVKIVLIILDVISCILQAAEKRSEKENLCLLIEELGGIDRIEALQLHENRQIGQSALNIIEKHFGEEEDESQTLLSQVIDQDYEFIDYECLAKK
UniProt O00505: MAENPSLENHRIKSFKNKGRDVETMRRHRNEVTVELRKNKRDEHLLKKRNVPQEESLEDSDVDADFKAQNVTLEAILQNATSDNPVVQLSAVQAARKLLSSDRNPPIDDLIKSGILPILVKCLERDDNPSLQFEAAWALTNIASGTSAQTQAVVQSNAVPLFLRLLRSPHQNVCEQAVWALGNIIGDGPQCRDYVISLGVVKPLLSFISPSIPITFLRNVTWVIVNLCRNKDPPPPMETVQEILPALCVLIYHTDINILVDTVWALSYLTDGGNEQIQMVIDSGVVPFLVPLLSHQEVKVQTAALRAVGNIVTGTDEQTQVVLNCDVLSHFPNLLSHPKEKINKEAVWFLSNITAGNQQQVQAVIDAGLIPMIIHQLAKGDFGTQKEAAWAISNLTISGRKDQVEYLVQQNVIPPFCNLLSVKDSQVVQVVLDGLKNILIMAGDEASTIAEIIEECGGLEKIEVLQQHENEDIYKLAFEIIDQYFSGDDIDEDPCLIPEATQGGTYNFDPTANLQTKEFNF
UniProt Q14974: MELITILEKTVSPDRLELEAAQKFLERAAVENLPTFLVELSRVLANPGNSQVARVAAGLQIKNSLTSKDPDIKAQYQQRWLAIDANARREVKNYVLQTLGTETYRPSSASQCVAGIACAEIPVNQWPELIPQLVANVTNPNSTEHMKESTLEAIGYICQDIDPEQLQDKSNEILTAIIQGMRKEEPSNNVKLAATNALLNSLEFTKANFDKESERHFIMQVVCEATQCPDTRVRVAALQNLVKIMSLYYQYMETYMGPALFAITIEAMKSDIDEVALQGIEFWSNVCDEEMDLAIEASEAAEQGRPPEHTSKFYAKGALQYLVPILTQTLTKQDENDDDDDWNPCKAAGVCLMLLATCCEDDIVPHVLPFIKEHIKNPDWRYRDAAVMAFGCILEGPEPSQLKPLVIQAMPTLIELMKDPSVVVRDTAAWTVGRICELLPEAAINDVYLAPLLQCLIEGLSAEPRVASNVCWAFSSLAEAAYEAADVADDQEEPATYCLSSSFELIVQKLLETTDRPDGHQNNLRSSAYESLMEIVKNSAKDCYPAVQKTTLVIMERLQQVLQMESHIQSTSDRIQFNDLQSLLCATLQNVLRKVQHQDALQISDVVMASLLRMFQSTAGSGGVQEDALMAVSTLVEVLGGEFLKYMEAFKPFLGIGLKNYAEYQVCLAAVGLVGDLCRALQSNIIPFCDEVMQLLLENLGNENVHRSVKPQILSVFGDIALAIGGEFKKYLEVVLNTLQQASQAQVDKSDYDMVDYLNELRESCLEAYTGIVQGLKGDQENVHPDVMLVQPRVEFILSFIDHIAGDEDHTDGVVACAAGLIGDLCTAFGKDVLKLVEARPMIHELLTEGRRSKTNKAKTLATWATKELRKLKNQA

Measured: binding

importin α8 (from UniProt A9QM74 1-516)
binds: HA-MITF (S49A) (human) | HA-MITF (human) | [1] | [2]

FLAG-importin α4 (from UniProt O00505 1-521)
binds: HA-MITF (S49A) (human) | HA-MITF (human) | [1] | [2]

FLAG-importin β (from UniProt Q14974 1-876)
binds: HA-MITF (human)

FLAG-importin α7 (from UniProt O60684 1-536)
binds: HA-MITF (S49A) (human) | HA-MITF (human) | [1] | [2]

Source: PMC10602086
